The other results are listed elsewhere or left out.
Legend:
Assay in all cases: log2 fold change, soluble protein after heating vs DMSO (PISA); higher = thermal stabilisation; K562 cells, 10 uM, 30 min; active = over 0.2 and 3.5 SD of the protein, either way, in both replicates (recomputed)
[1] = compound: C1=CC=C(C=C1)[C@H](COC2=CC3=C(C=C2)NC(=O)N3)NC(=O)C4=CC=CN(C4=O)CC5=CC(=C(C=C5)F)F
Method in brief: (§1)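 K562 cells at 2×10^6 cells/mL were given 10 μM compound for 30 min. Aliquots then went through 3 min of heating across 48°C-58°C, were pooled, and were extracted in PBS with 0.5% NP-40 at 4°C, and the supernatant after 21,000xg for 90 min was quantified by TMTpro 16plex LC-MS/MS with channel sums equalised. Thermal stability relative to control samples, from duplicates, is given as log2 fold change.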

By UniProt entry, the sequences of proteins in these tests, tags left out. Where a name states a change or a piece, a line headed by the entry shows the natural chain unless it says otherwise.
UniProt Q9Y289: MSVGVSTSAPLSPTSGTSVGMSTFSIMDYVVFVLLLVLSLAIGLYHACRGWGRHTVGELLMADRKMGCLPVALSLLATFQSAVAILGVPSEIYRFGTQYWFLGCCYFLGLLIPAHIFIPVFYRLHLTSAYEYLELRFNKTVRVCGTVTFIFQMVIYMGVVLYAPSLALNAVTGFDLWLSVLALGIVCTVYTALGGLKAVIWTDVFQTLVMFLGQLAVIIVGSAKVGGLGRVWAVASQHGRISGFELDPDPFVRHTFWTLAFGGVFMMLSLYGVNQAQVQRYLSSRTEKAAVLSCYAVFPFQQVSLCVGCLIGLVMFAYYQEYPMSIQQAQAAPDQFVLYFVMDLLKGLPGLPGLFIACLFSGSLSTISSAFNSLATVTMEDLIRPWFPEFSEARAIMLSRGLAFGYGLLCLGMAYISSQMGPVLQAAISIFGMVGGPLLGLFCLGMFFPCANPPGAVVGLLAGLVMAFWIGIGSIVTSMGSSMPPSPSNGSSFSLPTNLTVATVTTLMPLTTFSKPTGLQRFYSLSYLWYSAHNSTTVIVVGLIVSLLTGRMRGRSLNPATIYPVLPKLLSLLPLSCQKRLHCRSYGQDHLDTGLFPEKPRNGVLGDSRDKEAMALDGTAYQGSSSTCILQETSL
UniProt P11169: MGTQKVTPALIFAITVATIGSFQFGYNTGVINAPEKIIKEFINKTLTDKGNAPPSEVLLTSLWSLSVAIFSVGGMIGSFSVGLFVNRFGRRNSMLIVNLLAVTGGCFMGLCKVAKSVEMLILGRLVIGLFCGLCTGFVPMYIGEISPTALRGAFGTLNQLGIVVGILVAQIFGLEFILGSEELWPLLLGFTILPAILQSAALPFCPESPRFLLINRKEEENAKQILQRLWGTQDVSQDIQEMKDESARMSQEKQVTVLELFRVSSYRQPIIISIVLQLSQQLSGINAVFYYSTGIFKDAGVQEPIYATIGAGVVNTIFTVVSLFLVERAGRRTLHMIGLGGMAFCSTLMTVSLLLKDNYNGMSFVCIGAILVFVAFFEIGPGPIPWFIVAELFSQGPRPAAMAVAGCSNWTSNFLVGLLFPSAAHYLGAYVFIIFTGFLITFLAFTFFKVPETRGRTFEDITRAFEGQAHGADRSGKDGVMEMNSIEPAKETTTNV
UniProt P53985: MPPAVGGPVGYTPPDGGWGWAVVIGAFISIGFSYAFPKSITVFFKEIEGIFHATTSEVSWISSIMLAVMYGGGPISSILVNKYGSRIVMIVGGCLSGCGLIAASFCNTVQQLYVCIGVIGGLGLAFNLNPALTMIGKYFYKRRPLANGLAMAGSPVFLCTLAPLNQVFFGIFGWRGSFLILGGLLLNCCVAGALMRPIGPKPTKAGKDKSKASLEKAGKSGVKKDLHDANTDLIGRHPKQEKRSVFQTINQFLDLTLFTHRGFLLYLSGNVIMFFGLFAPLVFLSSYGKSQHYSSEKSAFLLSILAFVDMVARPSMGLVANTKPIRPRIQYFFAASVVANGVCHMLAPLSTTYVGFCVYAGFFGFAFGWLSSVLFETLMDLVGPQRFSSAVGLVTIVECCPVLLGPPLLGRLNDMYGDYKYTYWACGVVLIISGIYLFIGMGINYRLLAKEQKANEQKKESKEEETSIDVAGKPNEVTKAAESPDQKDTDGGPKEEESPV
UniProt Q9BRY0: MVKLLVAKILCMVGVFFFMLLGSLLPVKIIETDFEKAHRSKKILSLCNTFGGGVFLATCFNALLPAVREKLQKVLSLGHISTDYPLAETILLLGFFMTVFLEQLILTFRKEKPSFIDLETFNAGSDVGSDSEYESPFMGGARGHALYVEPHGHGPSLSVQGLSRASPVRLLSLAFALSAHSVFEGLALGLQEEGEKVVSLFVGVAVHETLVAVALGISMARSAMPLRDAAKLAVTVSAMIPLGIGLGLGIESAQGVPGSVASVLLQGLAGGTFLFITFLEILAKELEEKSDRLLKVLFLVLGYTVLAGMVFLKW
UniProt P04920: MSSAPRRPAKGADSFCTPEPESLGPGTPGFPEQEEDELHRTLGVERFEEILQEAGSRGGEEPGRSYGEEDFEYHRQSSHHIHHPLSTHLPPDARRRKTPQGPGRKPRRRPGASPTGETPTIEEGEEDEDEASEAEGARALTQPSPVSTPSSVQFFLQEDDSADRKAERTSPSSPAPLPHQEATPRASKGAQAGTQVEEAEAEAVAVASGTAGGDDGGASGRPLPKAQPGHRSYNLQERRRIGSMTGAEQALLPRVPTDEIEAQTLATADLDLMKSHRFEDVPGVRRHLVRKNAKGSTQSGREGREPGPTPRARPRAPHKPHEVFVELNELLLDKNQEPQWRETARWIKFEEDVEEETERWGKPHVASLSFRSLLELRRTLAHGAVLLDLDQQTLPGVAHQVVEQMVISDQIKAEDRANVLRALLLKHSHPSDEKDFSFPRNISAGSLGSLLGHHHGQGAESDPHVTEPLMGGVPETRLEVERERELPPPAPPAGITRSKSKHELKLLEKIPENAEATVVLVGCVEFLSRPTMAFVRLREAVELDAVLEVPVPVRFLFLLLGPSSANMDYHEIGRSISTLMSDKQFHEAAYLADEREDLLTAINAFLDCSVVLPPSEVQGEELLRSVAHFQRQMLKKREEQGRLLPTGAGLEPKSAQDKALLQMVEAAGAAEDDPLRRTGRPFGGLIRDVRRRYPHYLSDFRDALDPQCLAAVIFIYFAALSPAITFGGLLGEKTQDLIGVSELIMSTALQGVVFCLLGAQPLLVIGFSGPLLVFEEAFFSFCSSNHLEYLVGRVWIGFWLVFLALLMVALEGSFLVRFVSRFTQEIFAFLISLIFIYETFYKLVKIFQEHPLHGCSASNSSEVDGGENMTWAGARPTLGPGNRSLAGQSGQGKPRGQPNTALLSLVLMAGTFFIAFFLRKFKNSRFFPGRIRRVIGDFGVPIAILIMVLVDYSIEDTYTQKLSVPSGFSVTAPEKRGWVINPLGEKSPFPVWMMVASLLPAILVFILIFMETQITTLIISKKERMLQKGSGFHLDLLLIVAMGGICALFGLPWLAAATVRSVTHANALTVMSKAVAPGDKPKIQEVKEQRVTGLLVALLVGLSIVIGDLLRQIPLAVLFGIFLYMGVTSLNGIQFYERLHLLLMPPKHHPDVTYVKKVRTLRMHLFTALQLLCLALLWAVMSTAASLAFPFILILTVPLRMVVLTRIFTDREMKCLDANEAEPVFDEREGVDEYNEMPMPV
UniProt Q8NBI5: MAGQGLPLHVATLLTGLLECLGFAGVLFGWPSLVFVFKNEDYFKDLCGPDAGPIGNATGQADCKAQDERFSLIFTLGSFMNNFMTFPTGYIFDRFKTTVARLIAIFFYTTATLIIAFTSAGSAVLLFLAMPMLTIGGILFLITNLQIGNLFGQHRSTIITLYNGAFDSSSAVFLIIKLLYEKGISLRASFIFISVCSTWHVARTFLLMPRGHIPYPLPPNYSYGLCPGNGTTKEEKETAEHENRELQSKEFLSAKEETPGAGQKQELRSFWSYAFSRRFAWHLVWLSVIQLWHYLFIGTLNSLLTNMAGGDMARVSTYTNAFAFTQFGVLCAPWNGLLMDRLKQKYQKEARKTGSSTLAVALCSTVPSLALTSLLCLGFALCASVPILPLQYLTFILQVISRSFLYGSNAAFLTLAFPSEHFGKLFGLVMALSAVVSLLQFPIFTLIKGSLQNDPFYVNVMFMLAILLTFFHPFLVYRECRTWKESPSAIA
UniProt Q8IXU6: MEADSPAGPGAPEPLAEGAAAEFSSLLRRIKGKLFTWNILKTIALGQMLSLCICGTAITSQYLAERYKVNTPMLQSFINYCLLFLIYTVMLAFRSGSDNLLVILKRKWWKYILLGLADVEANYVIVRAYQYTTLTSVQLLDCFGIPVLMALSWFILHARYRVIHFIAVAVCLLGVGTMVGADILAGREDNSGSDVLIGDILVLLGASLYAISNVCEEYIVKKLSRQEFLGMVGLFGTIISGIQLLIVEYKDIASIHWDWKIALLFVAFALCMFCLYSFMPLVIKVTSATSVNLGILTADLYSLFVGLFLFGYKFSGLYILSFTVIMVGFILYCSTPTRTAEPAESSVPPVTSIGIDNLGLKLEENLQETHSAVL
UniProt Q9Y6M5: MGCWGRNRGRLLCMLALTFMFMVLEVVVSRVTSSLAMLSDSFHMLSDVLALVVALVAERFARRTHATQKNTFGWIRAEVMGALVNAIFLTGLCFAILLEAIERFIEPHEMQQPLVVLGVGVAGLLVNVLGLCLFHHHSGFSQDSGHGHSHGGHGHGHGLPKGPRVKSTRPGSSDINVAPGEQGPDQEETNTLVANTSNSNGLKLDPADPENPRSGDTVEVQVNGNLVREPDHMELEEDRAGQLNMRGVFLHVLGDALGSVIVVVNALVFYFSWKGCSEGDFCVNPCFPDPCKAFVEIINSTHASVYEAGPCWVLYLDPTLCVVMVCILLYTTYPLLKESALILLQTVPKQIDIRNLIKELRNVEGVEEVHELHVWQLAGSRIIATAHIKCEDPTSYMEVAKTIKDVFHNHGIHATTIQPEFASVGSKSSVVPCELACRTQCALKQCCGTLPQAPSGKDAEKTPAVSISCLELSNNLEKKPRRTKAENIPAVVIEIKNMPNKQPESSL
UniProt O43808: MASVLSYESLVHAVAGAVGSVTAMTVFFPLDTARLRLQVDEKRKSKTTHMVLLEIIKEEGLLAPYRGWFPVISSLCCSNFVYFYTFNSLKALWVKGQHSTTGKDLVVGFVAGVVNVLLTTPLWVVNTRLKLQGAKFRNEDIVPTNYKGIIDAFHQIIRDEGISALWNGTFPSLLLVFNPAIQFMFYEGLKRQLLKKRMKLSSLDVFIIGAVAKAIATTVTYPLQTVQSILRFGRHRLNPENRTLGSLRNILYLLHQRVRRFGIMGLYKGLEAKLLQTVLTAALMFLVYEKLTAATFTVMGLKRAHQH
UniProt Q96H78: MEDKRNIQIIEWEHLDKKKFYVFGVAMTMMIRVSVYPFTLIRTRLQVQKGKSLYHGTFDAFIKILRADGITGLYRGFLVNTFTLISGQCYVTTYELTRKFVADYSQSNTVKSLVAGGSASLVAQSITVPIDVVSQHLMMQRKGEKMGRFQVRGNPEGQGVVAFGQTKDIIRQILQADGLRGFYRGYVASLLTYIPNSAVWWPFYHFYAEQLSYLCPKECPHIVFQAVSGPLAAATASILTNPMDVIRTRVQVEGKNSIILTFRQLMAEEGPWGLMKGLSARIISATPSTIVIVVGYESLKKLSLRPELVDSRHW
UniProt Q695T7: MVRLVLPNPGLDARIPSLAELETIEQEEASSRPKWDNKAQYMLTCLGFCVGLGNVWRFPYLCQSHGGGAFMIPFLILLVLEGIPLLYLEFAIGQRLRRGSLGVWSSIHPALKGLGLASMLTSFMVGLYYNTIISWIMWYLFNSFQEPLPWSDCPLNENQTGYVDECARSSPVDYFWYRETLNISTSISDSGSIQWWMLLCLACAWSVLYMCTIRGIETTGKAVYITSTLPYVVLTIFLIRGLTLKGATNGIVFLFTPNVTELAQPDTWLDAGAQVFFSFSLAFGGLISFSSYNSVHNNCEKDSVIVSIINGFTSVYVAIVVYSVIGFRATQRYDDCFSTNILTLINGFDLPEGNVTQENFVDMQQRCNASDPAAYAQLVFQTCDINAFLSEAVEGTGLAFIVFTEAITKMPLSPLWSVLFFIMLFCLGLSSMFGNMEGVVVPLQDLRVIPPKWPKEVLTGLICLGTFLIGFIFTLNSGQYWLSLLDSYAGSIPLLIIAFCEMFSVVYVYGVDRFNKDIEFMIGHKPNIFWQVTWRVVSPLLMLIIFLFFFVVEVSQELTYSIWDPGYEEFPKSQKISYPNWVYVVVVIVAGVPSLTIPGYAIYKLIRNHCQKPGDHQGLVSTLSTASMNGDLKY
UniProt Q14493, whole entry, looked up: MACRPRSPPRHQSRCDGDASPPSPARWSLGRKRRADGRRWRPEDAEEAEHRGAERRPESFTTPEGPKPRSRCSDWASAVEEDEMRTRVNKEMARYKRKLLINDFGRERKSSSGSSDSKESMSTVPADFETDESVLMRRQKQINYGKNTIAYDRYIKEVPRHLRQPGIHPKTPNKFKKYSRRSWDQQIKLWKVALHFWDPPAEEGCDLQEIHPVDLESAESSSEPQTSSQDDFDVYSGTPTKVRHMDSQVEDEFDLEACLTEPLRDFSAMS
UniProt Q9HAB3: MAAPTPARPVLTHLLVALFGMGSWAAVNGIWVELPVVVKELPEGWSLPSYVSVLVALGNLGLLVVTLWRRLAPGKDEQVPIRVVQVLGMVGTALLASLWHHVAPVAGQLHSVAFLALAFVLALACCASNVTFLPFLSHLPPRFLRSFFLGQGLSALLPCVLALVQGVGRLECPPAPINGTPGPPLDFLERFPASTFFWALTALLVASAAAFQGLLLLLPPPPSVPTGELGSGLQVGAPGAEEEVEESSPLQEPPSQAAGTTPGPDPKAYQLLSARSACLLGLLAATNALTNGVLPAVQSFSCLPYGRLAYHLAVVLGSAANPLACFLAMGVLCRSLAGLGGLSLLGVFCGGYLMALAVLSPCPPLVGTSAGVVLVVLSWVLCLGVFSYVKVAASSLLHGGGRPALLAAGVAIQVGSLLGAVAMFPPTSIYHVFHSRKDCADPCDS

[2] = compound: CC1=C(SC2=C1C(=N[C@H](C3=NN=C(N32)C)CC(=O)N)C4=CC=C(C=C4)Cl)C
Method in brief: as §1

[3] = compound: CC1=C2C(=CC=C1)N=C(N(C2=O)C3=CC=CC=C3C)CN4C=NC5=C(N=CN=C54)N
Method in brief: as §1

[4] = compound: Cc1sc2c(c1C)C(c1ccc(Cl)cc1)=N[C@@H](CC(=O)OC(C)(C)C)c1nnc(C)n1-2
Method in brief: as §1

[5] = compound: c1ccc([C@@H]2C[C@H]2NC2CCNCC2)cc1
Method in brief: as §1

Measured: log2 fold change

SLC12A5 (UniProt Q9H2X9)
inactive: [1] 0.102 | [2] 0.099 | [3] 0.066 | [4] -0.064 | [5] 0.055

SLC5A6 (UniProt Q9Y289)
inactive: [1] 0.022 | [2] 0.096 | [3] -0.03 | [4] 0.025 | [5] -0.029

SLC35E1 (UniProt Q96K37)
inactive: [1] -0.024 | [2] -0.03 | [3] -0.061 | [4] 0.042 | [5] 0.106

SLC25A5 (UniProt P05141)
inactive: [1] -0.014 | [2] 0.013 | [3] 0.026 | [4] -0.076 | [5] -0.027

SLC33A1 (UniProt O00400)
inactive: [1] 0.036 | [2] 0.021 | [3] -0.012 | [4] -0.001 | [5] 0.007

SLC2A3 (UniProt P11169)
inactive: [1] 0.007 | [2] 0.04 | [3] 0.002 | [4] -0.002 | [5] 0.049

SLC16A1 (UniProt P53985)
inactive: [1] -0.062 | [2] 0.021 | [3] 0.149 | [4] 0.033 | [5] 0.047

SLC39A3 (UniProt Q9BRY0)
inactive: [1] 0.01 | [2] -0.02 | [3] -0.009 | [4] -0.011 | [5] -0.019

Random excerpt: 2 entries already listed.
SLC25A5 (UniProt P05141)
inactive: [1] -0.014 | [2] 0.013 | [3] 0.026 | [4] -0.076 | [5] -0.027

SLC33A1 (UniProt O00400)
inactive: [1] 0.036 | [2] 0.021 | [3] -0.012 | [4] -0.001 | [5] 0.007

Next part:

SLC4A2 (UniProt P04920)
inactive: [1] -0.042 | [2] 0.016 | [3] 0.019 | [4] -0.038 | [5] 0.088

SLC38A2 (UniProt Q96QD8)
inactive: [1] -0.006 | [2] 0.044 | [3] 0.024 | [4] -0.028 | [5] 0.035

SLC43A3 isoform 2 (UniProt Q8NBI5)
inactive: [1] 0.003 | [2] 0.043 | [3] -0.037 | [4] -0.029 | [5] 0.057

SLC19A1 (UniProt P41440)
inactive: [1] -0.025 | [2] 0.065 | [3] 0.045 | [4] -0.013 | [5] 0.017

SLC5A3 (UniProt P53794)
inactive: [1] 0.014 | [2] 0.021 | [3] 0.019 | [4] 0.013 | [5] -0.033

SLC35F2 (UniProt Q8IXU6)
inactive: [1] 0.017 | [2] -0.013 | [3] 0.019 | [4] -0.079 | [5] -0.017

SLC30A1 (UniProt Q9Y6M5)
inactive: [1] 0.001 | [2] 0.048 | [3] 0.015 | [4] 0.013 | [5] 0.048

SLC27A6 (UniProt Q9Y2P4)
inactive: [1] -0.04 | [2] 0.294 | [3] 0.171 | [4] 0.192 | [5] 0.176

SLC37A4 isoform 2 (UniProt O43826)
inactive: [1] 0.012 | [2] 0.071 | [3] -0.007 | [4] 0.016 | [5] 0.054

SLC35F6 (UniProt Q8N357)
inactive: [1] -0.034 | [2] -0.045 | [3] 0.064 | [4] -0.057 | [5] 0.067

SLC25A21 (UniProt Q9BQT8)
inactive: [1] 0.01 | [2] -0.011 | [3] 0 | [4] 0.01 | [5] 0.068

SLC25A3 isoform 2 (UniProt Q00325)
inactive: [1] 0.025 | [2] 0.01 | [3] -0.009 | [4] -0.008 | [5] -0.024

SLC4A1AP (UniProt Q9BWU0)
inactive: [1] 0.019 | [2] 0.049 | [3] 0 | [4] 0.012 | [5] 0.015

SLC27A1 (UniProt Q6PCB7)
inactive: [1] -0.02 | [2] 0.161 | [3] 0.293 | [4] 0.11 | [5] -0.029

SLC11A2 isoform 3 (UniProt P49281)
inactive: [1] 0.017 | [2] 0.039 | [3] -0.028 | [4] -0.004 | [5] 0.024

SLC25A12 (UniProt O75746)
inactive: [1] 0.021 | [2] 0.015 | [3] 0.022 | [4] 0.003 | [5] 0.045

SLC25A14 isoform 3 (UniProt O95258)
inactive: [1] -0.02 | [2] -0.099 | [3] -0.05 | [4] 0.001 | [5] -0.104

SLC25A6 (UniProt P12236)
inactive: [1] 0.026 | [2] 0.011 | [3] 0.052 | [4] -0.032 | [5] 0.015

SLC35A4 (UniProt L0R6Q1)
inactive: [1] 0 | [2] 0.084 | [3] -0.036 | [4] -0.146 | [5] 0.006

SLC25A13 isoform 2 (UniProt Q9UJS0)
inactive: [1] 0.024 | [2] 0.028 | [3] -0.001 | [4] 0.007 | [5] 0.005

SLC25A17 (UniProt O43808)
inactive: [1] 0.011 | [2] 0.012 | [3] -0.046 | [4] -0.025 | [5] 0

SLC25A44 (UniProt Q96H78)
inactive: [1] -0.004 | [2] 0.055 | [3] 0.003 | [4] -0.041 | [5] -0.013

SLC6A19 (UniProt Q695T7)
inactive: [2] -0.166 | [5] 0.15

SLC22A5 isoform 3 (UniProt O76082)
inactive: [1] 0.206 | [3] 0.019

SLBP (UniProt Q14493)
inactive: [1] -0.092 | [2] -0.056 | [3] 0.042 | [4] 0.059 | [5] 0.034

SLC20A1 (UniProt Q8WUM9)
inactive: [1] 0.002 | [2] 0.01 | [3] 0.063 | [4] -0.018 | [5] 0.014

SLC52A2 (UniProt Q9HAB3)
inactive: [1] 0.001 | [4] -0.349

SLC25A11 (UniProt Q02978)
inactive: [1] 0.014 | [2] 0.018 | [3] 0.01 | [4] -0.031 | [5] 0.045

SLC35A2 isoform 4 (UniProt P78381)
inactive: [1] 0.008 | [2] 0 | [3] 0.151 | [4] -0.087 | [5] 0.076

— the supplement of paper PMC10849652
